In paper PMC13368649:
No constants are given. Whether binding was seen depends on the method and setting. In cells and extracts the contact can be indirect. Some binding calls cover weakened binding; strength is not graded here.

Chains of the proteins cited; added tags and fusions are not shown.
UniProt Q96LB2: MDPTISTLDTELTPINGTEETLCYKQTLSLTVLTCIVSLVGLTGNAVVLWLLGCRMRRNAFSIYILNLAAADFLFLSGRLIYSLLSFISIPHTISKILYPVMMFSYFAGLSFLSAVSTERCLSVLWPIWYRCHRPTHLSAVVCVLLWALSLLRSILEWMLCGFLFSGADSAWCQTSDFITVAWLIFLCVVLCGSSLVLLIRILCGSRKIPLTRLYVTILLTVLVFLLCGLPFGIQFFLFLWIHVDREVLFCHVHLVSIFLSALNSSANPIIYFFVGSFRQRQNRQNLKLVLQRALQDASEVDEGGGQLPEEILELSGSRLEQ
UniProt P49407: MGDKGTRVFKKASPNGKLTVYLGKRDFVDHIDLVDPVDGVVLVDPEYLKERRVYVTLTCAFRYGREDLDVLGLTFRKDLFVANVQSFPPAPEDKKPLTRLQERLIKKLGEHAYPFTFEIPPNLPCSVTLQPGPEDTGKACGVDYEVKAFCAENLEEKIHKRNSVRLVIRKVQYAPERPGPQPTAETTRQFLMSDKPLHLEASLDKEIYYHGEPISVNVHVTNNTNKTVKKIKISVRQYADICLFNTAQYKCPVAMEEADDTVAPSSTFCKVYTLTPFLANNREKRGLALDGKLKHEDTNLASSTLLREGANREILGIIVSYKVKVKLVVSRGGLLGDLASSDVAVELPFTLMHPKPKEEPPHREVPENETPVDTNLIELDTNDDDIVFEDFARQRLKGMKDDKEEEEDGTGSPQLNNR
UniProt P32121: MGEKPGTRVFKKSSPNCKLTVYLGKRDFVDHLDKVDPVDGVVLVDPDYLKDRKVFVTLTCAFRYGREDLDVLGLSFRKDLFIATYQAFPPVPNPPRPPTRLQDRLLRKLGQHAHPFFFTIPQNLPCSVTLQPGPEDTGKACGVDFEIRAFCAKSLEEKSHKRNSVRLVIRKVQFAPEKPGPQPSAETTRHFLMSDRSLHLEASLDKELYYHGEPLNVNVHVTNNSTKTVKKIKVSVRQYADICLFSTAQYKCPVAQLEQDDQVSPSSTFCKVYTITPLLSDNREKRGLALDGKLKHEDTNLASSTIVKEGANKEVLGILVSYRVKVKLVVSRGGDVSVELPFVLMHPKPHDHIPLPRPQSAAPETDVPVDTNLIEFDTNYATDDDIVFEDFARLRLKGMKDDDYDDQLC

Legend:
[1] = target: human MrGPRX1-NP (Mas-related G-protein coupled receptor X1 with the C-terminal NanoBiT natural peptide fragment) (human) (UniProt Q96LB2); assay: FRET or BRET; NanoBiT-BRET (nbBRET) in live HEK293 cells: MrGPRX1-NP with the plasma membrane marker CAAX-LgBiT forms the donor, effector with Venus/YFP is the acceptor; change after BAM8-22 (1 μM), furimazine 10 μM, HBSS with 10 mM HEPES pH 7.4
[2] = target: human MrGPRX1-NP (Mas-related G-protein coupled receptor X1 with the C-terminal NanoBiT natural peptide fragment) (human) (UniProt Q96LB2); assay: FRET or BRET; NanoBiT-BRET (nbBRET) in live HEK293 cells: MrGPRX1-NP with the early endosome marker FYVE-LgBiT forms the donor, effector with Venus/YFP is the acceptor; change after BAM8-22 (1 μM), furimazine 10 μM, HBSS with 10 mM HEPES pH 7.4

Row | binding [1] | binding [2] | Substance
1 | binds | binds | β-arrestin 1-Venus (from UniProt P49407 1-418)
2 | no binding | no binding | β-arrestin 2-Venus (from UniProt P32121 1-409)
